Assay results published in PMC7819943, “Rice protein-binding microarrays: a tool to detect cis-acting elements near promoter regions in rice”.
The list shows a part of the results.

Protein sequences, listed by entry. Tags and fused reporters are not part of them.
UniProt Q0JBA9, entry or part of it: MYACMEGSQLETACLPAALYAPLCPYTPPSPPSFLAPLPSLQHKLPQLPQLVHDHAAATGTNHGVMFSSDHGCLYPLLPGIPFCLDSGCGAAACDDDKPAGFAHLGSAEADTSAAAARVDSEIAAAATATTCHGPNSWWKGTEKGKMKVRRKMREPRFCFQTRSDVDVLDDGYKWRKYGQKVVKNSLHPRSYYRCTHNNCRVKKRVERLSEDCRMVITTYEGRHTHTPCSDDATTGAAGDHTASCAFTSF

biological target: OsWRKY34 (Oryza sativa, UniProt Q0JBA9 1-250); assay: protein-binding microarray (RPBM); PBS, 2% BSA, 51.3 ng/ul salmon testes DNA, 50 uM zinc acetate, 200 nM TF, 25 C, 1 h; high values mean tight binding; settings: protein: recombinant; tags: N-terminal polyhistidine and DsRed monomer fusion (pET32a); label: CyDye5-dUTP incorporated in the synthesized complementary strand; 3' TTTTT single-stranded linker to array surface; dsDNA, one strand shown
Procedure, shortened: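 An Axon 4000B scanner gave the binding signal as per-feature fluorescence intensity in arbitrary units. This followed washing of a custom Agilent array that had been incubated for 1 h at 25 °C with 200 nM protein in PBS, 2% BSA, salmon testes DNA and 50 µM zinc acetate. The proteins were transcription factors fused at the N-terminus to polyhistidine and DsRed, expressed in E. coli BL21-CodonPlus and purified on Ni–NTA.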

Sequence | binding signal
GTTCACTGGCTTAATTATCCTATGGATATACTTAGCTTTTCGGAGTCACCTAGTGCAG | 9140 fluorescence intensity (a.u.)
ACGGGCGCTAGTGTCGGATCTCGGATGAGAAGATCCACGGCGGAGTCACCTAGTGCAG | 10100 fluorescence intensity (a.u.)
GCCGCCCCTGCCCCGCCGGAACCACGCCACGCCCGCCGCCCGGAGTCACCTAGTGCAG | 8230 fluorescence intensity (a.u.)
AACTCAAATCTGTCTGGTATGCCATCTTGTTCTTGTCTTTCGGAGTCACCTAGTGCAG | 8960 fluorescence intensity (a.u.)
GGAGGTGGGAGTGGGCAGTGGCTCGGCTCGTCGTCCTGGGCGGAGTCACCTAGTGCAG | 8780 fluorescence intensity (a.u.)
GTGGAGCCCACCTATCATTTTCTATTTTTCTTTTGTTTTCCGGAGTCACCTAGTGCAG | 10500 fluorescence intensity (a.u.)
CTTGACTGGCTTGTTCTCTCTCTCTCCCAGTAACCGATCTCGGAGTCACCTAGTGCAG | 8440 fluorescence intensity (a.u.)
TCATTCCTATGTTTTTTCTGTGTTTTGCAATTCTCTGTTTCGGAGTCACCTAGTGCAG | 14900 fluorescence intensity (a.u.)
ATACTCTTTTGTACCATATTGTTACAAATTGGACTAGGGGCGGAGTCACCTAGTGCAG | 8590 fluorescence intensity (a.u.)
AGGGTCGGTTTCCTCCTCGGCATTCTATCAAACAGTTCGTCGGAGTCACCTAGTGCAG | 8230 fluorescence intensity (a.u.)
TCTGCATTGTAACTGTATCTGCGTTTGATCTTTGCCGATCCGGAGTCACCTAGTGCAG | 9130 fluorescence intensity (a.u.)
TTTTTCCTTATCCACCTGGACACGCATATATAATTCACGACGGAGTCACCTAGTGCAG | 8670 fluorescence intensity (a.u.)
TCAGTTCGCTCCTTTTCTTTTCTTTTCTTTTCCTTTTTCTCGGAGTCACCTAGTGCAG | 10000 fluorescence intensity (a.u.)
TATTGTGGTGGGAGGAGGTTTGGCTTGTGACGAGCATAGCCGGAGTCACCTAGTGCAG | 8880 fluorescence intensity (a.u.)
AGGGACAGCAAATAGATCTACTACTCCAGCTCACACACTACGGAGTCACCTAGTGCAG | 8310 fluorescence intensity (a.u.)
TTTTGCTTGCAACGTTTGACTACTAGTCTTATTTAATTTTCGGAGTCACCTAGTGCAG | 8680 fluorescence intensity (a.u.)
CGTCTCGCCGCCCGTCTCCGGCGGCCGCACGTTGGCATTTCGGAGTCACCTAGTGCAG | 8830 fluorescence intensity (a.u.)
CGCGCGAGACCCGGCCATAATACCGCCTTCTGTTGTTAATCGGAGTCACCTAGTGCAG | 8300 fluorescence intensity (a.u.)
TCTTCCGTTGACAGAAACCACATCTCTACTGTAGTTATCTCGGAGTCACCTAGTGCAG | 8470 fluorescence intensity (a.u.)
TCCACGTCACCATGGACGAAGACGCCACCTTCGCCGCCGCCGGAGTCACCTAGTGCAG | 8070 fluorescence intensity (a.u.)
GATGACCTTGTATGCATAAAATCTTTCTATTGTTTGTTCACGGAGTCACCTAGTGCAG | 8080 fluorescence intensity (a.u.)

Given as a markdown table: entries from further up

| Sequence | binding signal |
| --- | --- |
| TCATTCCTATGTTTTTTCTGTGTTTTGCAATTCTCTGTTTCGGAGTCACCTAGTGCAG | 14900 fluorescence intensity (a.u.) |
| TATTGTGGTGGGAGGAGGTTTGGCTTGTGACGAGCATAGCCGGAGTCACCTAGTGCAG | 8880 fluorescence intensity (a.u.) |
| CGCGCGAGACCCGGCCATAATACCGCCTTCTGTTGTTAATCGGAGTCACCTAGTGCAG | 8300 fluorescence intensity (a.u.) |
| GATGACCTTGTATGCATAAAATCTTTCTATTGTTTGTTCACGGAGTCACCTAGTGCAG | 8080 fluorescence intensity (a.u.) |

Next part:

Sequence | binding signal
ACCACTCTCTTTCTCTTCTTGGTAGGTGTTCTTGTCAAACCGGAGTCACCTAGTGCAG | 13200 fluorescence intensity (a.u.)
CCAGCTTCCTTCTATATCTGTAATTTGCTTATAGCGTCTGCGGAGTCACCTAGTGCAG | 8400 fluorescence intensity (a.u.)
GACTCGCCACCTCACCTACTCACCAGGCTTACTTTCATCACGGAGTCACCTAGTGCAG | 9460 fluorescence intensity (a.u.)
TCTATCTTGGAACATGTCTATTTTTTTTCTCTTCCGGCAACGGAGTCACCTAGTGCAG | 9360 fluorescence intensity (a.u.)
GCCCTCACCCTCCTCACCTCTGCATCCGCTTTTGTCGCCCCGGAGTCACCTAGTGCAG | 8700 fluorescence intensity (a.u.)
CCAAATCAATCAAATCGCATTCCACCAATTCTCCACTCTCCGGAGTCACCTAGTGCAG | 9010 fluorescence intensity (a.u.)
TTATCCAAATGTCTAACTTATTCTTTTTATTTATTGGCAGCGGAGTCACCTAGTGCAG | 8410 fluorescence intensity (a.u.)
ACGGACAAACTGGACCACCAACGCGGACAAACAAATCTCTCGGAGTCACCTAGTGCAG | 8210 fluorescence intensity (a.u.)
CAATTTCCACTCCATTTATTTGTTCCTTTTTTTCTAACAGCGGAGTCACCTAGTGCAG | 8330 fluorescence intensity (a.u.)
GATCCTTTTGTCCTTGTCCATTGTTCCATCTAATGTACTACGGAGTCACCTAGTGCAG | 16000 fluorescence intensity (a.u.)
AGATCATCTCAATACGTTCATTTACCACTTTGTTTCACTTCGGAGTCACCTAGTGCAG | 9030 fluorescence intensity (a.u.)
GGTTGGTGCTTCTGAATTCTGGGGTTAGGTTTGTCTCCTGCGGAGTCACCTAGTGCAG | 12000 fluorescence intensity (a.u.)
TAGATACAGTTGTCGTTTTGATTTGTAAACAATTTAGCATCGGAGTCACCTAGTGCAG | 8590 fluorescence intensity (a.u.)
GCAACTTCCATCTCTTTGCAATGGTGCTTTGGCCAAGCAACGGAGTCACCTAGTGCAG | 8780 fluorescence intensity (a.u.)
CTGCGGCCACACCTCCAACCGTGTTGCTGCCATCAGCCTCCGGAGTCACCTAGTGCAG | 8480 fluorescence intensity (a.u.)
AACCTAATCTAGTTTGACTCATCTGCTGGGTCAAATCTATCGGAGTCACCTAGTGCAG | 11500 fluorescence intensity (a.u.)
TGGATTAGTCTGTCTTCTACTGGTTTTTAGCTGCTATAATCGGAGTCACCTAGTGCAG | 11900 fluorescence intensity (a.u.)
ACTGCTATCGTATTGTACTTTTGTGCTGAAATGTTCACGCCGGAGTCACCTAGTGCAG | 8640 fluorescence intensity (a.u.)
CTCCCATTCCATCGCCGCCACCGCCTCCGCATCTCCAGCGCGGAGTCACCTAGTGCAG | 9040 fluorescence intensity (a.u.)
TTCTCAGCCAATCCCCAGCTCACACGTGCCAACTCTTCCACGGAGTCACCTAGTGCAG | 8840 fluorescence intensity (a.u.)
CTTGTGGGGTGCGGGTAGCCGTTAAGGCCGCGGGGTGACTCGGAGTCACCTAGTGCAG | 13000 fluorescence intensity (a.u.)

Sequence | binding signal
CTTTCGACCAGTTTGGTAACTAACTGCGTTGACTGTACCCCGGAGTCACCTAGTGCAG | 11000 fluorescence intensity (a.u.)
CACTCACTCGCACCACCGGACCTCACCTGCCGCGGCCATGCGGAGTCACCTAGTGCAG | 9910 fluorescence intensity (a.u.)
ATCCCATAATTTCATGGTGCTCCGGCCCTGTTGTATCATTCGGAGTCACCTAGTGCAG | 8300 fluorescence intensity (a.u.)
GCCGCCGACCGCGAGTGACGGCGAGGGCTTTTTCCCCGTGCGGAGTCACCTAGTGCAG | 8650 fluorescence intensity (a.u.)
AAATGTTACAATCATGCTCCAAACTCACACCTTGTTTAACCGGAGTCACCTAGTGCAG | 8540 fluorescence intensity (a.u.)
ATGTGGTGGTTTGCCTTTAGCTCTTGTTACAATAGGGAGTCGGAGTCACCTAGTGCAG | 9830 fluorescence intensity (a.u.)
ATCAACCATGAACCATCCGCGCCCGCGCACCTCCTCCTCTCGGAGTCACCTAGTGCAG | 8100 fluorescence intensity (a.u.)
ACGAAATCGCTGGTCCTAGATTCTGCAGAATTGATGTCTTCGGAGTCACCTAGTGCAG | 8080 fluorescence intensity (a.u.)
TTTTTCTCCTGGAATTTTGTGTCCTGTTTCTCTGTGTGGGCGGAGTCACCTAGTGCAG | 9760 fluorescence intensity (a.u.)
TTCTCCGGCTCCGCCGCGCGTTCTACTTCTACCGTTACCGCGGAGTCACCTAGTGCAG | 14300 fluorescence intensity (a.u.)
TTTTTGTCTTATTGTTTTGTTTATTTTATTTCAGTTTATTCGGAGTCACCTAGTGCAG | 9760 fluorescence intensity (a.u.)
AGCTACACAACCTTTGTCCCTCAACTTTGGCTCTATGGCCCGGAGTCACCTAGTGCAG | 8770 fluorescence intensity (a.u.)
CTCACACCCTCGTCCAGCCAAGGCGGCGGCGCACAGCCAGCGGAGTCACCTAGTGCAG | 9210 fluorescence intensity (a.u.)
AGTATGTGTTGTCAGTGTTGATATCTCCTCCCTAATCCAACGGAGTCACCTAGTGCAG | 8970 fluorescence intensity (a.u.)
GCTGATGAATGATGTTGTGCAATTATAATTTTCTTCTTCTCGGAGTCACCTAGTGCAG | 8360 fluorescence intensity (a.u.)
ACACTTGCTTTTGTCACTTCTATTTTGGCAGAAACAAACACGGAGTCACCTAGTGCAG | 8750 fluorescence intensity (a.u.)
GTCTTTCTCTCTTCAGCATCTCTACTCTCGCTCCATTTCTCGGAGTCACCTAGTGCAG | 11500 fluorescence intensity (a.u.)
CTGATGCGCCTATGGTTTTGACCTTTCTGGCTTGGACGGACGGAGTCACCTAGTGCAG | 10100 fluorescence intensity (a.u.)
ACCGTCCCATTTTAAATACAGTTGTGGGTTTTCGTATTTACGGAGTCACCTAGTGCAG | 8150 fluorescence intensity (a.u.)
GAACTAACCTTTGCCACCACTGATCCCTGCTGCTACTCCTCGGAGTCACCTAGTGCAG | 9080 fluorescence intensity (a.u.)
ACTTTATCTTTGCCGCCGGCCGCCACAACTGCTTCTACGGCGGAGTCACCTAGTGCAG | 9180 fluorescence intensity (a.u.)

Sequence | binding signal
CGTACCTTTTTCGGTTTTCTTTTTTTTTCTTTTTTTTTCTCGGAGTCACCTAGTGCAG | 8120 fluorescence intensity (a.u.)
TAGTTAAGAGATGCCGGATGTTTGGTTTTTCGGTCGGGGACGGAGTCACCTAGTGCAG | 9400 fluorescence intensity (a.u.)
CACGATGAGGCCATCACCGGCCCACCTCCGCCCGAATCAACGGAGTCACCTAGTGCAG | 9160 fluorescence intensity (a.u.)
TGATGTGTCCTTTTCTTTTTTTTCTTCTTTTATTTTTCTTCGGAGTCACCTAGTGCAG | 12300 fluorescence intensity (a.u.)
TTCTTGGCCCGCTAACTCATGATGGTTTTATCCAGATCGTCGGAGTCACCTAGTGCAG | 9880 fluorescence intensity (a.u.)
ATGCTTTTATCTATTGATGTTTTAATTGCAAGCTTTGTATCGGAGTCACCTAGTGCAG | 9540 fluorescence intensity (a.u.)
GCCGCACCTGCGCCCACACCACACCACCAAACCGAACCCTCGGAGTCACCTAGTGCAG | 9000 fluorescence intensity (a.u.)
ACCACCCTTCTATCTCTTCGCGTCCGTCTCCACCCCTTCGCGGAGTCACCTAGTGCAG | 9630 fluorescence intensity (a.u.)
GTTCTTGCATGCTGTTCTTGTTGATCGAGTGAGAGAGGGGCGGAGTCACCTAGTGCAG | 8100 fluorescence intensity (a.u.)
GTCCCGCCGCCCCGCTCCTGCGCCACCGCCGCCAGTCACTCGGAGTCACCTAGTGCAG | 9890 fluorescence intensity (a.u.)
CAGAGTTTTTTGCCCTCTAATCGATTCTTTATCCTCATAGCGGAGTCACCTAGTGCAG | 8570 fluorescence intensity (a.u.)
ATGTAGATGATGGTCTTTTATGAATCTATTTTTCTAATTGCGGAGTCACCTAGTGCAG | 8160 fluorescence intensity (a.u.)
ATGCTCCCTCAATTCAGGGGTAGATCTGCTGGTTGACTTTCGGAGTCACCTAGTGCAG | 8720 fluorescence intensity (a.u.)
TCTTAATGGTACAAAGGTTGTCTCTCTGCATTGTGCATACCGGAGTCACCTAGTGCAG | 9080 fluorescence intensity (a.u.)
GTTGATTTTTTTTAAATATGTTTGACCGTTCGTCTTATTCCGGAGTCACCTAGTGCAG | 8600 fluorescence intensity (a.u.)
GCCTTTTCGCTGCCGTCGCTGGTTGTTCGTGAGCTTCGGACGGAGTCACCTAGTGCAG | 14300 fluorescence intensity (a.u.)
GCCGCGCCGCCCCAGCCGCCGCCATGCCACCGAAGGCCAACGGAGTCACCTAGTGCAG | 8320 fluorescence intensity (a.u.)
CATCCTTCTTCATCGCTGCCATATCAGTCCTGAATTCGTTCGGAGTCACCTAGTGCAG | 9760 fluorescence intensity (a.u.)
CCCCTTCCCCGCCCCGGCACCCGCATTCGCACCCGCACCGCGGAGTCACCTAGTGCAG | 8710 fluorescence intensity (a.u.)
GCCCTCACACAGGGTTCTCTTGCGGGTTGGGGATCTCATCCGGAGTCACCTAGTGCAG | 12900 fluorescence intensity (a.u.)
CCATTTGTGGTCAACACCTCGTAGCGTCCCTATTTAACGTCGGAGTCACCTAGTGCAG | 10000 fluorescence intensity (a.u.)
